Among the data in PubChem BioAssay AID1487 (National Center for Advancing Translational Sciences (NCATS), 2009) are AC50 values, retold here.

Some of the results follow. These are further read-outs of the screen, such as a control signal, another cell line or another target. No call is given for them. Most of these compounds were active or inconclusive in the main read-out, so they are no random draw. Potencies come from curve fits of mixed quality, noted in brackets.

This assay can be described thus: qHTS Assay for Modulators of Lamin A Splicing. The following applies: HeLa LMNA splicing GFP/RFP minigene ratio, 48 h. The method in brief:
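S3 HeLa cells stably expressing lamin A-EGFP splicing minigene plus DsRed2, 600 cells/well, 48 h compound exposure at 37C. Laser-scanning cytometry; analysed as GFP (500-530 nm)/RFP (575-640 nm) total intensity ratio; 0.5% DMSO vehicle.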

[1] abbreviates: measured here: GFP splicing reporter channel.
[2] abbreviates: measured here: RFP viability control channel.

By AC50 is commonly meant the midpoint of the concentration-response curve, whichever way the signal moves.

`Cc1cc(C)c2c(c1)-c1c(ssc1=S)C(C)(C)N2C(=O)CSc1nncn1C`: the AC50 is, setting by setting: under setting [1], 17.8 µM [rising, single point]; under setting [2], 35.5 µM [rising, single point].
Take `CCOc1ccc2c(c1)-c1c(ssc1=S)C(C)(C)N2C(=O)c1ccco1`: the AC50 was 35.5 µM [rising, single point] under setting [1] and 15.8 µM [rising, partial curve] under setting [2].
Take `CC(C)(C)OC(=O)N/N=C\c1ccc(OC(=O)c2ccco2)cc1`: the AC50 is 0.794 µM [rising, full curve, poor fit] under setting [1] and 0.0224 µM [rising, full curve, poor fit] under setting [2].
Regarding `Cc1ccccc1Cn1nc(C)c(NC(=O)c2noc3c2CC(C(C)(C)C)CC3)c1C` (configuration not stated), the AC50 is, setting by setting: under setting [1], 35.5 µM [falling, single point]; under setting [2], 14.1 µM [falling, partial curve].
Consider `O=C1Cc2c([nH]c3ccc(Br)cc23)-c2ccccc2N1`, for which the AC50 reads like this: under setting [1], 0.794 µM [falling, full curve]; under setting [2], 5.62 µM [falling, full curve, poor fit].
Turning to `Cc1ncoc1C(=O)N1CCCC(C(=O)c2ccc(-c3ccccc3)cc2)C1` (configuration not stated), the AC50 is 15.8 µM [falling, partial curve, poor fit] under setting [1] and 11.2 µM [falling, partial curve, poor fit] under setting [2].
For `COc1ccccc1-c1nnc2sc(C3CCCCC3)nn12`, the AC50 under setting [2] was 35.5 µM [rising, single point].
The same measure, in the same setting: under `O=C(Nc1ccc(CN2CCOCC2)cc1)c1cc2ccccn2n1` stands 22.4 µM [rising, partial curve, poor fit].
As to `Cc1cc(C)cc(N=c2c([N+](=O)[O-])nn(-c3ccc4c(c3)OCCO4)n2O)c1`, the AC50 is, setting by setting: under setting [1], 0.158 µM [rising, full curve, poor fit]; under setting [2], 5.62 µM [rising, partial curve, poor fit].
Turning to `Cc1ccc(OCC(=O)Nc2ccccc2C(=O)OCc2cc(=O)n3nc(C4CC4)sc3n2)cc1`, the AC50 under setting [1] is 2.51 µM [falling, partial curve].
For `CCOc1ccc(-c2nc[nH]c2[N+](=O)[O-])cc1`, the AC50 under setting [1] was 1 µM [falling, partial curve, poor fit] and the AC50 under setting [2] was 0.112 µM [falling, full curve, poor fit].
Regarding `CCOc1ccc(NC(=O)CNC(=O)c2ccc(OC)c(OC)c2)cc1`, the AC50 under setting [1] was 31.6 µM [rising, single point].
As to `CCC(CC)NC(=O)c1oc2ccccc2c1COc1ccccc1`, the AC50 under setting [2] is 11.2 µM [rising, single point].
Turning to `COc1ccc(-n2cc(CNCCc3ncc(C)[nH]3)c(-c3ccccc3Cl)n2)cc1`, under setting [1], the AC50 is 35.5 µM [falling, single point].
Turning to `O=C(CSc1cccc[n+]1[O-])c1cc(Cl)ccc1Cl`, the AC50 reads like this: under setting [1], 7.94 µM [falling, partial curve]; under setting [2], 35.5 µM [falling, single point].
Consider `CCOC(=O)c1cccc(NC(=O)C2(S(=O)(=O)c3ccc(Cl)cc3)CC2)c1`, for which, under setting [2], the AC50 is 10 µM [rising, partial curve].
Still for that read-out and setting: the result for `O=C(Nc1ccccc1)C(c1ccccc1)C1CCCC1` (configuration not stated) reads 28.2 µM [rising, single point].
On to `O=C(Nc1ccc(C(=O)OCc2cc(=O)n3c4c(sc3n2)CCCC4)cc1)c1ccccc1`, for which the AC50 under setting [1] was 0.282 µM [rising, full curve].
For the compound `CN(Cc1cccc(-n2cccn2)c1)C(=O)CCc1nnc(C2CCCCC2)o1`, under setting [2], the AC50 was 0.562 µM [falling, full curve, poor fit].
Take `C=CCNc1nc(-c2ccc([N+](=O)[O-])cc2)cs1`: the AC50 by setting is: under setting [1], 11.2 µM [rising, single point]; under setting [2], 17.8 µM [rising, partial curve].
Turning to `O=S(=O)(/C=C/c1ccccc1)Nc1cccc(S(=O)(=O)NC2=NCCC2)c1`, the AC50 under setting [1] was 3.16 µM [falling, full curve].
Take `O=C(Cn1cnc2c(oc3ccccc32)c1=O)Nc1ccccc1C(F)(F)F`: the AC50 under setting [2] was 35.5 µM [rising, single point].
Consider `Cc1ccnc(NS(=O)(=O)c2ccc(C(C)(C)C)cc2)c1`, for which the AC50 was 0.112 µM [rising, single point] under setting [1] and 0.1 µM [rising, single point] under setting [2].
As for `O=C1c2cccc(OCC(=O)N3CCCc4ccccc43)c2CCN1Cc1ccc(F)cc1`, under setting [2], the AC50 was 22.4 µM [rising, partial curve, poor fit].
Same read-out and setting: the result for `COC(=O)c1cc(CSc2nc3ccccc3[nH]2)oc1C` reads 28.2 µM [rising, single point]; that for `O=C(NCc1cccc(Cl)c1)c1cc2ccc3cccnc3c2[nH]1`, 39.8 µM [falling, partial curve, poor fit].
Regarding `N#Cc1cc(C(=O)c2cc(Br)ccc2O)cn(C2CC2)c1=O`, the AC50 reads like this: under setting [1], 15.8 µM [rising, single point]; under setting [2], 14.1 µM [rising, single point].
Regarding `Cn1c(CNC(=O)OC(C)(C)C)n[nH]c1=S`, the AC50 under setting [2] was 0.00562 µM [falling, full curve, poor fit].
Same read-out and setting: under `COc1cccc(NC(=O)Nc2ccc(C(C)(C)C)cc2)c1` stands 35.5 µM [rising, single point].
For `COc1ccc2[nH]cc(CCNc3ccnc(-c4ccc(C(=O)N(C)C)cc4)n3)c2c1`, the AC50 reads like this: under setting [1], 12.6 µM [falling, partial curve]; under setting [2], 12.6 µM [falling, partial curve].
For `COc1ccc(-c2n[nH]c(=S)n2C2CCCCC2)cc1`, the AC50 was 25.1 µM [rising, single point] under setting [1] and 35.5 µM [rising, single point] under setting [2].
In the case of `CC(=O)c1c(C)[nH]c(C(=O)OCC(=O)Nc2cc(S(=O)(=O)N3CCCC3)ccc2Cl)c1C`, the AC50 reads like this: under setting [1], 35.5 µM [rising, single point]; under setting [2], 15.8 µM [rising, partial curve].
In the case of `CCn1nc([N+](=O)[O-])c(C(C#N)c2nc3cc(C(F)(F)F)ccc3s2)c(Cl)c1=O` (configuration not stated), the AC50 runs as follows: under setting [1], 14.1 µM [falling, partial curve]; under setting [2], 35.5 µM [rising, single point].
With `Cc1c(C(=O)c2no[n+]([O-])c2C(=O)c2cnn(C)c2C)cnn1C`, the AC50 under setting [2] is 15.8 µM [falling, single point].
Regarding `O=C1C=CC(=O)N1CCCCCCN1C(=O)C=CC1=O`, the AC50 is, setting by setting: under setting [1], 10 µM [falling, partial curve]; under setting [2], 8.91 µM [rising, partial curve].
In the case of `CCOCCCn1c(SCC(=O)Nc2ccc(C(C)C)cc2)nc2c(sc3ccccc32)c1=O`, the AC50 is, setting by setting: under setting [1], 2 µM [falling, full curve]; under setting [2], 5.62 µM [falling, partial curve, poor fit].
Regarding `C[C@]12C=CC(=O)C=C1CC[C@H]1[C@@H]3C[C@@H](O)[C@](O)(C(=O)CO)[C@@]3(C)C[C@H](O)[C@@]12F`, under setting [2], the AC50 is 0.0224 µM [falling, full curve, poor fit].
In the case of `COc1ccc(S(=O)(=O)N2CCCCCC2)cc1C(=O)OCC(=O)NC(C)(C)C`, under setting [1], the AC50 was 35.5 µM [rising, single point].
As for `O=C(NCc1ccc(Cl)cc1Cl)c1ccc2nc[nH]c2c1`, the AC50 under setting [2] was 10 µM [rising, partial curve, poor fit].
In the case of `O=C(CCn1c(=O)[nH]c2ccsc2c1=O)N(CCc1ccccc1)Cc1ccccc1`, the AC50 under setting [1] is 17.8 µM [rising, single point].
As to `CCN(CC)C(=O)/C(C#N)=C/c1cc(O)c(O)c([N+](=O)[O-])c1`, the AC50 is 6.31 µM [falling, partial curve, poor fit] under setting [1] and 0.0447 µM [falling, full curve, poor fit] under setting [2].
Regarding `COCCN(CCOC)C(=S)Nc1ccccc1Cl`, the AC50 under setting [2] is 0.501 µM [rising, full curve].
For the compound `Fc1ccc(Nc2nc(N3CCOCC3)c3ccccc3n2)cc1`, the AC50 reads like this: under setting [1], 31.6 µM [rising, partial curve]; under setting [2], 25.1 µM [rising, partial curve].
`S=C(Nc1ccc(Br)cc1)NC1CCCCC1`: the AC50 under setting [2] was 35.5 µM [rising, single point].
On the same count and under the same terms, the result for `CC(C)c1ccc(NC(=O)c2snc3ccc(Cl)cc23)cc1` reads 10 µM [rising, partial curve].
For the compound `CN(Cc1ccccc1)S(=O)(=O)c1ccc(NC(=S)NC(=O)C2CCCC2)cc1`, the AC50 is, setting by setting: under setting [1], 8.91 µM [falling, partial curve]; under setting [2], 10 µM [falling, partial curve].
`CC(C)NC(=O)NC(=O)COC(=O)Cc1c(F)cccc1Cl`: the AC50 under setting [1] was 0.0794 µM [falling, full curve, poor fit] and the AC50 under setting [2] was 0.0224 µM [falling, full curve, poor fit].
Regarding `COc1cccc(Nc2ncc3ncc(=O)n(CCc4ccccc4)c3n2)c1`, the AC50 under setting [2] was 14.1 µM [falling, partial curve].
Consider `Cc1ccc(C)c(-n2nnnc2Sc2nnnn2-c2ccccc2)c1`, for which the AC50 was 28.2 µM [falling, single point] under setting [1] and 35.5 µM [falling, single point] under setting [2].
Consider `O=C(c1cccc(S(=O)(=O)Nc2ccccc2F)c1)N1CCN(c2ccccc2F)CC1`, for which the AC50 was 7.94 µM [falling, full curve, poor fit] under setting [1] and 7.08 µM [falling, full curve, poor fit] under setting [2].
Regarding `CCN(CC)c1ccc(NC(=O)C2=CCN(S(=O)(=O)c3ccc(F)cc3)CC2)c(C)c1`, the AC50 under setting [2] is 14.1 µM [rising, single point].
As to `Cc1nn(CCCC(=O)Nc2cc(Oc3ccccc3)cc([N+](=O)[O-])c2)c(C)c1[N+](=O)[O-]`, the AC50 under setting [1] was 35.5 µM [rising, single point].
On to `CC1CCCCC1NC(=O)/C(C#N)=C/c1ccccc1F` (configuration not stated), for which, under setting [2], the AC50 was 25.1 µM [rising, single point].
